Measured values published in publication PMC12283023.
Results are given in words; binding and its absence hold for the method and conditions named. In cells and extracts the contact can be indirect. Some results given as binding are weak or reduced against the parent protein; the word gives no strength.

Tests used:
[1] = molecular target: untagged SQSTM1/p62 expressed in HEK293T cells (human) (UniProt Q13501); test: co-IP; HEK293T cells co-transfected with tagged or untagged SQSTM1, HA-CDKN1A or HA-CDKN2A and MYC- or Flag-MAP1LC3, in the presence of baf-A1; IP by Flag, SQSTM1 or HA
[2] = molecular target: Flag-tagged SQSTM1/p62 expressed in HEK293T cells (human) (UniProt Q13501); test: as above

Substance | binding [1] | binding [2]
HA-tagged CDKN1A/p21 expressed in HEK293T cells (from UniProt P38936 1-164) | binds | binds
HA-tagged CDKN2A/p16 expressed in HEK293T cells (from UniProt P42771 1-156) | binds | binds
